Measurements reported in PMC11426239.
No constants are given. Whether binding was seen depends on the method and setting. Binding seen in cells or lysates may run through a third protein. Some entries that bind do so weakly or less than the wild type. Values belong to the substance of their own block, whether it stands above or below them.

By UniProt entry, the sequences of proteins in these tests, tags left out. Where a name states a change or a piece, a line headed by the entry shows the natural chain unless it says otherwise. Residues count along the entry.
UniProt P84022: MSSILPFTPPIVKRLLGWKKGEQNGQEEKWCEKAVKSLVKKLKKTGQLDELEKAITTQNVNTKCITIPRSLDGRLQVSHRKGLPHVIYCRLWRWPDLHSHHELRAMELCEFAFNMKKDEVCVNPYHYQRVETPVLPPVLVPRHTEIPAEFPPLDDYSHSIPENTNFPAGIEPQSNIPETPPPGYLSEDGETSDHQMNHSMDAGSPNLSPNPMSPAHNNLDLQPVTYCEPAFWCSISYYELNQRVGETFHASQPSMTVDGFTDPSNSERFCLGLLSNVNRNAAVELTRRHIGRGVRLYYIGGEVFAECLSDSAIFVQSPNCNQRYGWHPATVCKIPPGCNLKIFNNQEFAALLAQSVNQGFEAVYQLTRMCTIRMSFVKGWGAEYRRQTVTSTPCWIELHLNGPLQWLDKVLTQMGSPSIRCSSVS
UniProt Q93009: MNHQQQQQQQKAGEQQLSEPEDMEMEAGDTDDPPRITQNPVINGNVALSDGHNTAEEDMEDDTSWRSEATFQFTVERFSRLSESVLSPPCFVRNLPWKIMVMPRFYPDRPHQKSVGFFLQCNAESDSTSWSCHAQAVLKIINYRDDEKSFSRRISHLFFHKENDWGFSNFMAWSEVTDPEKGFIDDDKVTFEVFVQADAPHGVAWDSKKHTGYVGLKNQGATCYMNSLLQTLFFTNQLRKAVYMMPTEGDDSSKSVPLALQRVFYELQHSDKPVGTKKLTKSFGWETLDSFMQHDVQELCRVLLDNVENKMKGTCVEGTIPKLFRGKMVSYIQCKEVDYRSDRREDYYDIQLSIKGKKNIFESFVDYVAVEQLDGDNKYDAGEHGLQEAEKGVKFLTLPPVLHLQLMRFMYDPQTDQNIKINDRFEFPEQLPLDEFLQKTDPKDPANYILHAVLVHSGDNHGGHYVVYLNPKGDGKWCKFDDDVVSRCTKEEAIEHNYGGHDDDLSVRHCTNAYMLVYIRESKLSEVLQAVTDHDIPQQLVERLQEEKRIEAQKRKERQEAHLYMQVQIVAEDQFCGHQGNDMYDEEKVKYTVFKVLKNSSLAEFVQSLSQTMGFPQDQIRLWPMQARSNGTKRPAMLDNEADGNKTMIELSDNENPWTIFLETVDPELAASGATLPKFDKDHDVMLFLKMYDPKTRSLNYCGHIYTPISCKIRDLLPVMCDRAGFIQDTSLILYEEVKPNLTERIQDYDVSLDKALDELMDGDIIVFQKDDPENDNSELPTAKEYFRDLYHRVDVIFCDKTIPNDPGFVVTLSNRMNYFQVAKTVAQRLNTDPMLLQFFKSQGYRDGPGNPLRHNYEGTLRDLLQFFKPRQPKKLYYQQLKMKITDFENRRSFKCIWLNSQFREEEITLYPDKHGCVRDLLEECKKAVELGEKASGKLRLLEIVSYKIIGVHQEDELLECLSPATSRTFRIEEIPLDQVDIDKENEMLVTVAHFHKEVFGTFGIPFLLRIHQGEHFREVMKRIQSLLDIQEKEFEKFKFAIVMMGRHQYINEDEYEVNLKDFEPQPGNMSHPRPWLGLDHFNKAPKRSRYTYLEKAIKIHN
USP7 mutant containing amino acids 561-1102 (UBL domain): residues 561-1102 of Q93009
UniProt Q4VSI4: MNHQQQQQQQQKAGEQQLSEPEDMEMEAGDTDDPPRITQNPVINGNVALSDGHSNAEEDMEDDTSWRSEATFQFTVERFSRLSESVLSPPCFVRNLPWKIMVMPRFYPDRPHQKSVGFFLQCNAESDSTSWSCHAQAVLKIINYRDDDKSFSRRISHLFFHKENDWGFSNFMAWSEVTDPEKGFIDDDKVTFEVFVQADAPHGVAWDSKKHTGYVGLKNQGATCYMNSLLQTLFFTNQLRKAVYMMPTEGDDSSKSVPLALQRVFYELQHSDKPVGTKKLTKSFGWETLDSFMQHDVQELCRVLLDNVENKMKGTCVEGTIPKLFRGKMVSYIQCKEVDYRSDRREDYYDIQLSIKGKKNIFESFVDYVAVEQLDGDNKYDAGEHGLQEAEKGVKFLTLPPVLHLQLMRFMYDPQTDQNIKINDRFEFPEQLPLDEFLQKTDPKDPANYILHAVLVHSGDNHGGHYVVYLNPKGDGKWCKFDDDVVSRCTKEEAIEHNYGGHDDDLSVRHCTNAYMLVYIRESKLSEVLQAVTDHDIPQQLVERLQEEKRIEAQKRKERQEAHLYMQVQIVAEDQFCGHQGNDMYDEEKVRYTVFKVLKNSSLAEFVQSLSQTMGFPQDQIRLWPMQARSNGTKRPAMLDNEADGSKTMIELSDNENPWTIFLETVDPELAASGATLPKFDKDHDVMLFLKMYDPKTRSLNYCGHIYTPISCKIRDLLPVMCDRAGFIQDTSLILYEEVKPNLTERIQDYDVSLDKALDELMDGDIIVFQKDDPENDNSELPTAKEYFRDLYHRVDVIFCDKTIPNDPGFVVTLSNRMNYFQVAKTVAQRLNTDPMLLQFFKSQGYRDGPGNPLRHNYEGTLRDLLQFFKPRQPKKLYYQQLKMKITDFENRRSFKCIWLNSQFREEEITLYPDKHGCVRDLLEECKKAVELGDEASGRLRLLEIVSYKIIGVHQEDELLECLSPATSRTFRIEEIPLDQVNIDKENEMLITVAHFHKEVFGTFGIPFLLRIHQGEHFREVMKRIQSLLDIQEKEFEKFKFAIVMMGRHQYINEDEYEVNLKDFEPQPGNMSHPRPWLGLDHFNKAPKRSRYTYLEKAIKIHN
UniProt P84025: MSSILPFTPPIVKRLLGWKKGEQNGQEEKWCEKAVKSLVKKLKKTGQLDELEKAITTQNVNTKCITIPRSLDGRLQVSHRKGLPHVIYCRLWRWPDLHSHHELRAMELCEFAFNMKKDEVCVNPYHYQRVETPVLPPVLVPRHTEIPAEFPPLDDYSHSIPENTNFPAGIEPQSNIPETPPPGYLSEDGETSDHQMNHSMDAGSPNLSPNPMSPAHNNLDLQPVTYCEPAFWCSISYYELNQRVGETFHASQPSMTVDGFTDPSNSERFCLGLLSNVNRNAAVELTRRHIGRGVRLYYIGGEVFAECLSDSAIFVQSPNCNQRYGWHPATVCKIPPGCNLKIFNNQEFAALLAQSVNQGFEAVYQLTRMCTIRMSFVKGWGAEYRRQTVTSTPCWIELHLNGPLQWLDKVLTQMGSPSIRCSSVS

Tests used:
[1] = biological target: Myc-SMAD3 (UniProt P84022); experiment: co-IP; 293T cells co-transfected with Flag-USP7 or Flag-USP7-C223S and Myc-SMAD3; SMAD3 immunoprecipitated by anti-Myc antibody
[2] = biological target: Flag-USP7 (UniProt Q93009); experiment: co-IP; 293T cells co-transfected with Flag-USP7 (wild type or domain mutants) and Myc-SMAD3; USP7 immunoprecipitated by anti-Flag antibody
[3] = biological target: USP7 mutant containing amino acids 561-1102 (UBL domain) (UniProt Q93009); experiment: as above
[4] = biological target: USP7, endogenous in primary cardiac microvascular endothelial cells (CMECs) (rat (endogenous in CMECs)) (UniProt Q4VSI4); experiment: co-IP; CMECs treated with or without TGFβ1; endogenous USP7 immunoprecipitated by anti-USP7 antibody; IgG control
[5] = biological target: SMAD3, endogenous in primary cardiac microvascular endothelial cells (CMECs) (rat (endogenous in CMECs)) (UniProt P84025); experiment: co-IP; CMECs treated with or without TGFβ1; endogenous SMAD3 immunoprecipitated by anti-SMAD3 antibody; IgG control

Substance: Flag-USP7-C223S (from UniProt Q93009 1-1102) (enzyme)
- binding [1]: binds

Substance: SMAD3, endogenous in primary cardiac microvascular endothelial cells (CMECs) (from UniProt P84025 1-425)
- binding [4]: binds

Second part, the substance after the results:

- binding [1]: binds
Substance: Flag-USP7 (from UniProt Q93009 1-1102) (enzyme)

- binding [2]: binds
- binding [3]: binds
Substance: Myc-SMAD3 (from UniProt P84022 1-425)

- binding [5]: binds
Substance: USP7, endogenous in primary cardiac microvascular endothelial cells (CMECs) (from UniProt Q4VSI4 1-1103) (enzyme)
